Experimental data from patent US20100120092A1.
No constants are given. Whether binding was seen depends on the method and setting. Some entries that bind do so weakly or less than the wild type.

By UniProt entry, the sequences of proteins in these tests, tags left out. Where a name states a change or a piece, a line headed by the entry shows the natural chain unless it says otherwise.
UniProt P27958: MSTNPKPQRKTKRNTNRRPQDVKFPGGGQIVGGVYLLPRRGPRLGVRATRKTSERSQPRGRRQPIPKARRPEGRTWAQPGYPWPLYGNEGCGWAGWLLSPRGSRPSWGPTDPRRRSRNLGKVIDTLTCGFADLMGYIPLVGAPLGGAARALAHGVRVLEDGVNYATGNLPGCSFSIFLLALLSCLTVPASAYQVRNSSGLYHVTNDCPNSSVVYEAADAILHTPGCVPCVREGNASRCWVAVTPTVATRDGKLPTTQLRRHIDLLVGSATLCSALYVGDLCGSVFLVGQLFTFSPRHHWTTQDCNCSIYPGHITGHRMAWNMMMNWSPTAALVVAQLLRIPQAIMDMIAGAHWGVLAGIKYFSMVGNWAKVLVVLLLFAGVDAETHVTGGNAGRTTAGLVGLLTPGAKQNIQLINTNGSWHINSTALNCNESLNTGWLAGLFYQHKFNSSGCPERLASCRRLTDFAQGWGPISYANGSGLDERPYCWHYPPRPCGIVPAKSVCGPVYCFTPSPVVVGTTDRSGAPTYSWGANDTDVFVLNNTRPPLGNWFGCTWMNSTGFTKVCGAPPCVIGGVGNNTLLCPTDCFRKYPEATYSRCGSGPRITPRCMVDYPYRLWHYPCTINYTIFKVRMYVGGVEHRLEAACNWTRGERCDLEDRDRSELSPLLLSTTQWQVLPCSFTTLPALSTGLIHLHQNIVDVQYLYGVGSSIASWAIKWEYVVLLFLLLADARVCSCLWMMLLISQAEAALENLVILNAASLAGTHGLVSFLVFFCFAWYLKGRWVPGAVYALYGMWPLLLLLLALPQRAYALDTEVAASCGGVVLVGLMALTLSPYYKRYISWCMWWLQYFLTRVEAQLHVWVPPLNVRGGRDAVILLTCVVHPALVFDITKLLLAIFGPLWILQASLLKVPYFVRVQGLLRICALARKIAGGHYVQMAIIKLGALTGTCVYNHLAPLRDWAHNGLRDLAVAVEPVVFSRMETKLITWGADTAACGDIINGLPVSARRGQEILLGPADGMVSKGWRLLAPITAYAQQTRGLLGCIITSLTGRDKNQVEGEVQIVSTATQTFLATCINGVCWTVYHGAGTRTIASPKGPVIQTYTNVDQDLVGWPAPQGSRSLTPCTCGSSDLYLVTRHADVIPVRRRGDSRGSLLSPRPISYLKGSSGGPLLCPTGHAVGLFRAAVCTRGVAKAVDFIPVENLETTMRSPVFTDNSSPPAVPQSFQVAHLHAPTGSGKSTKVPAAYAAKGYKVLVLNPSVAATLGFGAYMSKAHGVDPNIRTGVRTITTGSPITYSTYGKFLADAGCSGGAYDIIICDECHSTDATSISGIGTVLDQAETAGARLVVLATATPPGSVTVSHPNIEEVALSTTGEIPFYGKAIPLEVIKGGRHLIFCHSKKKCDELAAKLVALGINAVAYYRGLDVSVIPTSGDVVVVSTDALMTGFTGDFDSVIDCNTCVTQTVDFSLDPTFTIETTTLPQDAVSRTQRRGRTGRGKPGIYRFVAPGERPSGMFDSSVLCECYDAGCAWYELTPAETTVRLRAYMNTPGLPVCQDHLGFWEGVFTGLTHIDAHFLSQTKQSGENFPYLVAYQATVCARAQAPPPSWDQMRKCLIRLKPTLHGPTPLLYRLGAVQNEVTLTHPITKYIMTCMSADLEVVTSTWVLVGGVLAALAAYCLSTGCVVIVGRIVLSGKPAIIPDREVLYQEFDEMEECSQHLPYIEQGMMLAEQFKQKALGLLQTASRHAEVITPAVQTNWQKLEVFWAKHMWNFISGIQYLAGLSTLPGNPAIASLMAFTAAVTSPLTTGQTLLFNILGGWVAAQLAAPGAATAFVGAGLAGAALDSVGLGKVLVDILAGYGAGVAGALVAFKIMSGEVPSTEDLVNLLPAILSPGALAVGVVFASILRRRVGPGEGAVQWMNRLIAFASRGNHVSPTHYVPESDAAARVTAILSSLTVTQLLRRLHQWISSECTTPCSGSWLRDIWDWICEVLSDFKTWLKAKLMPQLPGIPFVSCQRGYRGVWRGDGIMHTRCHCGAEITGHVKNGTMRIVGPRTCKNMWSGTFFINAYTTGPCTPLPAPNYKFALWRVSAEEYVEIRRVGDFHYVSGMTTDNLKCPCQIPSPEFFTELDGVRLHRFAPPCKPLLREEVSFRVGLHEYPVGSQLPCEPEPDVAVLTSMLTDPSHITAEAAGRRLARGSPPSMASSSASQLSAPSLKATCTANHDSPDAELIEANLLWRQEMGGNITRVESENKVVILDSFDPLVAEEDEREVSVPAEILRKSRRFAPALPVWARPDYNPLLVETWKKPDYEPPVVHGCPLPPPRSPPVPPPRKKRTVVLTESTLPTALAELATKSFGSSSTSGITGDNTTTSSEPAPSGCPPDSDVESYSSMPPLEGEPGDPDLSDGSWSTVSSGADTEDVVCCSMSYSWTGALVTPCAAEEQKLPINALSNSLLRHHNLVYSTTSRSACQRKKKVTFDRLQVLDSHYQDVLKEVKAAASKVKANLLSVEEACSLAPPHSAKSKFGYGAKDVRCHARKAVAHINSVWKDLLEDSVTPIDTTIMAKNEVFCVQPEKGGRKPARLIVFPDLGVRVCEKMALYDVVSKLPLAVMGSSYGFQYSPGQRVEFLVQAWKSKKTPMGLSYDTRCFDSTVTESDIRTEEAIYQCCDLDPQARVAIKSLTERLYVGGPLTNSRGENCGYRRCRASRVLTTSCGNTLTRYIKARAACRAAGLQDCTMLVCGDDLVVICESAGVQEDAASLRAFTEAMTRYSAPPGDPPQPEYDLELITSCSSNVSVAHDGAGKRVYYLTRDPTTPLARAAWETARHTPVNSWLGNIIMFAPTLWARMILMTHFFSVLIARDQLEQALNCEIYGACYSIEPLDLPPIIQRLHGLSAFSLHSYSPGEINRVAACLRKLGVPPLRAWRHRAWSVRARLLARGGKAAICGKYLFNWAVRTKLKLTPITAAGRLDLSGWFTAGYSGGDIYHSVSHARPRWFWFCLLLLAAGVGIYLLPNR

Biological target: HCV E2-DHBV S fusion protein (hepatitis C virus strain H77 (genotype 1a); duck hepatitis B virus (DHBV))
Experiment: co-sedimentation in sucrose gradient, Western blot

Substance: HCV E1 protein cleaved from the E1E2-DS polyprotein (from UniProt P27958 193-383)
- binding: binds
